The values below come from paper PMC4376527.

For the assay, the target named is T1, Smaug (Smg) (Drosophila (endogenous in adult thoraxes)) (UniProt Q23972).
T1 sequence: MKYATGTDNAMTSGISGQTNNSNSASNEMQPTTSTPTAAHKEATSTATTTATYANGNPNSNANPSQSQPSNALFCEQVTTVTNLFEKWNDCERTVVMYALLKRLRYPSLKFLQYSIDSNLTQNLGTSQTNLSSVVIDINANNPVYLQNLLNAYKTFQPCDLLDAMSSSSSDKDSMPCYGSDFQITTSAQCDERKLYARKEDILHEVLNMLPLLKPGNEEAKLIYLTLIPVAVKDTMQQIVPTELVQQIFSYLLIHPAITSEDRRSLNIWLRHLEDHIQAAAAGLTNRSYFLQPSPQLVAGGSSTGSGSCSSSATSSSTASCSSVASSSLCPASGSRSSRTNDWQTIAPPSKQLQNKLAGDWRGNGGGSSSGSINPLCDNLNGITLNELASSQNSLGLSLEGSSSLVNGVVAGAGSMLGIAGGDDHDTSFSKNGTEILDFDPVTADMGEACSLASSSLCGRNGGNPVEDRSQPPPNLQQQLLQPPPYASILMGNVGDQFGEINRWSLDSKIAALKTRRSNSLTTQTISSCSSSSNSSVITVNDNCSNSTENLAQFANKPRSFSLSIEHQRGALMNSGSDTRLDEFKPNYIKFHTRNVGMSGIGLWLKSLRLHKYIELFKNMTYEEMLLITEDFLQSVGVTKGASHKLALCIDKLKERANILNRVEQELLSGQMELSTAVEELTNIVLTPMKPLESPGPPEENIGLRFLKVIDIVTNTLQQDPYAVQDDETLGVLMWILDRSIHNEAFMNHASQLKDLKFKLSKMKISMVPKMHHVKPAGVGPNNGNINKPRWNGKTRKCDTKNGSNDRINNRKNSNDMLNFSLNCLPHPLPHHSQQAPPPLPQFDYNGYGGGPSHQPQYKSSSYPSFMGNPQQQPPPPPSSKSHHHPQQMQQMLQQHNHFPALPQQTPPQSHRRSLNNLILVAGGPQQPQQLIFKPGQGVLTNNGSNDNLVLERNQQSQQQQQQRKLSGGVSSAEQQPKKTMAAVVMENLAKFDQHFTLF
Briefly: co-IP; Smg immunoprecipitation (rabbit anti-Smg; mock IP with rabbit IgG) from UASp-CCR4-HA/Mhc-Gal4 adult thorax extracts, in the presence or the absence of RNase A; western blots with anti-Smg, anti-HA and anti-PABP2. For orientation: In western blotting, separated proteins are transferred to a membrane and probed.

No constants are given. Whether binding was seen depends on the method and setting. Binding seen in cells or lysates may run through a third protein.

B1: PABP2 (protein, UniProt Q7KNF2 1-224)
chain: MADEDITLNEDQLLESLEETNGEQETEIATEVEEEGSMQIDPELEAIKARVKEMEEEAEKIKQMQSEVDKQMAGGSTTGLATVPLSLEEKQEIDTRSVYVGNVDYGASAEELEAHFHGCGTINRVTILCNKADGHPKGFAYIEFGSKEFVETALAMNETLFRGRQIKVMSKRTNRPGLSTTNRFARGSFRGRGARVSRACCHSTFRGARRAMGYRGRANYYAPY
Regarding B1, the binding entry is “no binding”.
